The text below walks through data of US3984432A, “Color photographic recording material” (priority 1973, dated 1976).

SMILES strings stand for the structures.

The data set can be described thus: Colour reversal processing, Use Example II. As to conditions: black-and-white development, then colour development.

As for `CCCCC(CC)COP(=O)(CCCOc1cccc(C(=O)Nc2ccc(C(=O)NC3=NN(c4c(Cl)cc(Cl)cc4Cl)C(=O)C3)cc2)c1)OCC(CC)CCCC` (stereo not shown) [(215)], the “Appearance of colour wedge (reversal)” value is “clear magenta wedge corresponding to a colour reversal material”.
